Assay results

From PubChem BioAssay record AID463188 (University of Pittsburgh Molecular Library Screening Center, 2010).

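Counterscreen z-score for each compound in a recombinant Hck-YEEI:Nef Z-Lyte FRET kinase setup using a p-Tyr peptide, with a 50 min kinase step and 60 min development.
Compounds were tested at a single concentration of 10 µM.
The number is a z-score for the p-Tyr peptide counterscreen; higher values mean a stronger counterscreen signal, and values above 3 mark a compound as likely interfering.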

Common to all entries: measured here: p-Tyr peptide counterscreen.
This is a side read-out of the assay, for part of the compounds, not drawn at random.

{"compound": "CCc1cc(=S)n2c([nH]c3ccccc32)c1C#N", "z-score": "3.501"}
{"compound": "O=C(N=Nc1c(O)[nH]c2ccccc12)c1cc(NS(=O)(=O)c2cccs2)cc(NS(=O)(=O)c2cccs2)c1", "z-score": "-1.825"}
{"compound": "CCN(CC)c1ccc(-c2nn3c(-c4n[nH]c5c4CCC5)nnc3s2)cc1", "z-score": "18.17"}
{"compound": "Cc1c(-n2c(O)c(C3=c4ccccc4=NC3=O)sc2=S)c(=O)n(-c2ccccc2)n1C", "z-score": "0.1286"}
{"compound": "CCOc1cc(/C=N/N=C2/NC(=O)C(CC(=O)O)S2)ccc1OCc1ccc(Cl)cc1Cl", "stereo": "stereo unspecified", "z-score": "-1.033"}
{"compound": "CNc1nc(-c2cccs2)cc(C(F)(F)F)c1C#N", "z-score": "26.47"}
{"compound": "c1ccc(COc2ccc(Nc3ncnc4nc[nH]c34)cc2)cc1", "z-score": "1.374"}
{"compound": "CC1(C)Cc2c(C#N)c(NCC3CCCO3)nc(-c3ccco3)c2CO1", "stereo": "stereo unspecified", "z-score": "29.13"}
{"compound": "Cc1ccc(-c2nc3ccccc3s2)cc1NC(=O)c1cc(-n2cnnc2)ccc1Cl", "z-score": "1.219"}
{"compound": "NC(=O)c1ccsc1NC(=O)C1CC1", "z-score": "-0.2853"}
{"compound": "CCOC(=O)c1c(NC(=O)/C=C\\C(=O)O)sc(C)c1-c1ccccc1", "z-score": "0.517"}
{"compound": "O=C(/C=C/c1ccco1)NC(=S)Nc1ccccc1O", "z-score": "-1.935"}
{"compound": "Cc1nccc(-c2sc(-c3cccs3)nc2C)n1", "z-score": "33.47"}
{"compound": "O=C(O)COc1ccccc1/C=N/Nc1ccc(S(=O)(=O)Nc2ccc(Cl)cc2)cc1[N+](=O)[O-]", "z-score": "0.5532"}
{"compound": "CC(=O)c1c(C)[nH]c(C(=O)CSc2nnc(-c3ccccc3)n2Cc2ccc3c(c2)OCO3)c1C", "z-score": "1.347"}
{"compound": "Cc1cccc(Cc2nnc(CCC(=O)N(C)Cc3ccncc3C)o2)c1", "z-score": "0.6841"}
{"compound": "O=C(O)c1cc(-c2ccc(/C=C3/SC(=S)N(Cc4ccccc4)C3=O)o2)ccc1Cl", "z-score": "-0.6585"}
{"compound": "COc1ccc(Nc2n[nH]c(N)c2C(N)=O)cc1", "z-score": "-0.4549"}
{"compound": "N#C/C(=C\\c1ccc(OC(=O)c2ccc(Cl)s2)cc1)c1nc2ccccc2[nH]1", "z-score": "-0.9386"}
{"compound": "COCCNC(=O)c1c(N)n(CCC(C)C)c2nc3ccccc3nc12", "z-score": "35.7"}
{"compound": "N#Cc1cc2c(=O)n3ccccc3nc2n(CCCn2ccnc2)c1=N", "z-score": "15.4"}
{"compound": "c1ccc(Nc2ccnc(Nc3ccccc3)n2)cc1", "z-score": "-0.2152"}
{"compound": "COc1ccc(C2=CC3=C(Br)C(=O)C(C)(OC(=O)C4CCCC4)C(=O)C3=CO2)cc1", "stereo": "stereo unspecified", "z-score": "-1.835"}
{"compound": "O=C1OC(/C=C/c2ccccc2)=NC/1=C\\c1cccnc1", "z-score": "-1.363"}
{"compound": "CCOC(=O)c1cc(C(=O)Nc2ccc(C)c(F)c2)nn1C", "z-score": "0.4708"}
{"compound": "Cc1ccc(-c2[nH]ncc2/C=N/n2c(C)nc3ccccc3c2=O)cc1", "z-score": "0.08288"}
{"compound": "COCCCn1c(=NC(=O)c2ccccc2)c(C#N)cc2c(=O)n3cccc(C)c3nc21", "z-score": "5.949"}
{"compound": "O=C1NC(=O)N(Cc2ccco2)C(=O)/C1=C/c1ccc(-c2cccc([N+](=O)[O-])c2)o1", "z-score": "0.5144"}
{"compound": "O=C(N/N=C/c1ccc([N+](=O)[O-])cc1)c1cc(-c2ccc3c(c2)OCO3)n[nH]1", "z-score": "-1.427"}
{"compound": "CC(C)(C)c1ccc(C(=O)CC(Sc2ccc(Cl)cc2)C(=O)O)cc1", "stereo": "stereo unspecified", "z-score": "-0.5515"}
{"compound": "Cc1[nH][nH]c(=O)c1C(c1c(C)[nH][nH]c1=O)c1cn(C)c2ccccc12", "z-score": "0.8843"}
{"compound": "O=c1c(O)cccc2cc(O)c(O)c(O)c12", "z-score": "0.2546"}
{"compound": "COC(=O)Cc1[nH]n(-c2nc3ccccc3s2)c(=O)c1C(C)=Nc1ccc(Cl)cc1", "z-score": "-2.077"}
{"compound": "O=C(CSc1nc(-c2ccc(F)cc2)nc2c1Cc1ccccc1O2)Nc1cccc(C(=O)O)c1", "z-score": "-2.102"}
{"compound": "Cc1nc2c(ccc3nc(NC(=O)C4CC4)sc32)s1", "z-score": "0.4336"}
{"compound": "Cc1ccc(-c2nnc(SCC(=O)Nc3sc(C)c(C)c3C#N)n2C)cc1", "z-score": "0.03575"}
{"compound": "Cc1c2c(n3c(nc4ccccc43)c1C#N)N(CCN(C)C)CC2", "z-score": "57.25"}
{"compound": "CCOC(=O)c1cc2nc(Nc3ccc(OC)cc3)sc2s1", "z-score": "12.37"}
{"compound": "CC(=O)C1C(c2ccc3ncccc3c2)NC(=O)NC1(O)C(F)(F)F", "stereo": "stereo unspecified", "z-score": "1.916"}
{"compound": "CCCN1C(=O)/C(=c2\\sc3nc(=O)c(Cc4ccc(C)cc4)nn3c2=O)c2ccccc21", "z-score": "0.8088"}
{"compound": "Oc1[nH]c2ccccc2c1N=Nc1ncnc2c1oc1ccccc12", "z-score": "-2.025"}
{"compound": "COc1ccc(OC)c(N2C(=O)NC(=O)/C(=C/c3ccc([N+](=O)[O-])s3)C2=O)c1", "z-score": "-0.5646"}
{"compound": "O=C(N/N=C/c1ccncc1)c1ccc(NC(=O)c2ccc(Cl)cc2)cc1", "z-score": "-0.474"}
{"compound": "c1ccc(-c2oc3ncnc(NCCCN4CCOCC4)c3c2-c2ccccc2)cc1", "z-score": "-1.079"}
{"compound": "COc1ccc(C(=O)N2CCCC(C(=O)N3CCCCCC3)C2)cc1", "stereo": "stereo unspecified", "z-score": "0.5922"}
{"compound": "COc1ccc(CCNc2c3ccccc3nc3ccccc23)cc1OC", "z-score": "14.97"}
{"compound": "CC(/C=N/n1c(COc2ccccc2)n[nH]c1=S)=C\\c1ccco1", "z-score": "-1.802"}
{"compound": "C/C(=N\\Nc1ccc(S(N)(=O)=O)cc1[N+](=O)[O-])c1ccc2c(c1)OCO2", "z-score": "-1.423"}
{"compound": "C/C=C/C=C\\C(=O)Nc1cccc(C2=NOC3(C2)C[C@@H](C(N)=O)N(C(=O)c2cc([N+](=O)[O-])cc([N+](=O)[O-])c2)C3)c1", "stereo": "stereo partly specified", "z-score": "-0.4041"}
{"compound": "O=[N+]([O-])c1ccc(-c2nn(-c3ccccc3)cc2/C=N/n2c(-c3ccncc3)n[nH]c2=S)cc1", "z-score": "-1.345"}

Some entries from above, unchanged:

{"compound": "O=C(CSc1nc(-c2ccc(F)cc2)nc2c1Cc1ccccc1O2)Nc1cccc(C(=O)O)c1", "z-score": "-2.102"}
{"compound": "O=C(N/N=C/c1ccncc1)c1ccc(NC(=O)c2ccc(Cl)cc2)cc1", "z-score": "-0.474"}
{"compound": "O=C1OC(/C=C/c2ccccc2)=NC/1=C\\c1cccnc1", "z-score": "-1.363"}
{"compound": "Oc1[nH]c2ccccc2c1N=Nc1ncnc2c1oc1ccccc12", "z-score": "-2.025"}
{"compound": "CC1(C)Cc2c(C#N)c(NCC3CCCO3)nc(-c3ccco3)c2CO1", "stereo": "stereo unspecified", "z-score": "29.13"}